Assay results reported in patent US11985932B2 (priority 2019, dated 2024).

Tested on: rice gene expression (WRKY45 gene and other genes)
Experiment: Comprehensive analysis of rice gene expression (RNA-seq) in regenerated plants
Set-up: species or system Oryza sativa cv. Nipponbare

[Cl-].[Na+] [NaCl, sodium chloride]
number of genes with significantly changed expression (plants regenerated from callus treated with 200 mM NaCl vs control plant): 1,038 | number of genes significantly increased in expression (plants regenerated from callus treated with 200 mM NaCl, FDR<0.05): 753
